Laboratory results from the supplement of paper PMC12823440, “Inhibitors supercharge kinase turnover through native proteolytic circuits” (Nature, 2025).
Structures can show the parent of a compound that is named as a salt. Some of the results follow. Hit calls seldom repeat between salt and free forms of one compound.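 Kinases were expressed as nanoluciferase fusions in K562 cells and luminescence was read every 4 h between 2 and 18 h as percent of control, DMSO set to 100% and a positive control to 0%. A time point counts as decreased when the signal drops significantly (2 sigma). The hit call is the authors' own, does not follow from the count of time points alone, and its rule is not shown.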

Protein sequences, listed by entry. Tags and fused reporters are not part of them. Lines headed by an entry give the natural chain unless they say otherwise; changes in a name come on top.
UniProt P43403: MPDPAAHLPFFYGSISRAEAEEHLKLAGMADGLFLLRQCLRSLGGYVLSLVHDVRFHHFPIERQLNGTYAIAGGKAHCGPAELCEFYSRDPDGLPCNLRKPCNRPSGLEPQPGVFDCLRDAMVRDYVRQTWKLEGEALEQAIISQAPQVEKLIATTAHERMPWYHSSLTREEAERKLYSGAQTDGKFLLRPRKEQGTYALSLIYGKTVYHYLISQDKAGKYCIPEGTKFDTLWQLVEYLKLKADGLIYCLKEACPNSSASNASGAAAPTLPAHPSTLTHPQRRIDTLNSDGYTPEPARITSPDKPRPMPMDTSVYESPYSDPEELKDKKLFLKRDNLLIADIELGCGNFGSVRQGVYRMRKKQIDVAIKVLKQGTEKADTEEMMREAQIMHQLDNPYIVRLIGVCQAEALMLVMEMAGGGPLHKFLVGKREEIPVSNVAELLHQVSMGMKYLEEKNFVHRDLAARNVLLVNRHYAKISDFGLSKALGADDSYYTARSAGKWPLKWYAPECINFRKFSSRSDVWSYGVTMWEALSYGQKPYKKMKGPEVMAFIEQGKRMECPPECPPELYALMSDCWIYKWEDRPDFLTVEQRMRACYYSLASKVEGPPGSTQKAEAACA

Target: ZAK (UniProt Q9NYL2)
Assay: number of time points (of 5) at which kinase-Nluc abundance scored as decreased, DMSO-normalised (count); higher = more persistent destabilization
Conditions: K562; 2-18 h

Compound	number of time points
N#Cc1ccc(-c2cnc3[nH]cc(NC(=O)c4cccnc4)c3c2)cc1 (10 µM)	0
Cc1ccc(C(=O)NC2CC2)cc1-n1ncc(C(=O)c2cccc(C#N)c2)c1N [Acumapimod] (10 µM)	0
COc1cc(N2CCC(N3CCN(C)CC3)CC2)ccc1Nc1ncc(Cl)c(-c2c[nH]c3ccccc23)n1 (2.5 µM)	0
Cc1cc(Nc2cc(N3CCN(C)CC3)nc(Nc3ccc([N+](=O)[O-])cc3)n2)n[nH]1 (2.5 µM)	0
C=CC(=O)N1CCC[C@@H](n2nc(-c3ccc(Oc4ccccc4)cc3)c3c(N)n[nH]c(=O)c32)C1 [BTK inhibitor 17] (10 µM)	0
O=Nc1c(-c2c(O)[nH]c3cc(Br)ccc23)[nH]c2ccccc12 [GSK 3 Inhibitor IX] (2.5 µM)	0
C#Cc1cccc(Nc2ncnc3cc(OC)c(NC(=O)N4C[C@H]5CCN(C)[C@H]5C4)cc23)c1 [Theliatinib] (10 µM)	0
Fc1ccc2[nH]ccc2c1-c1nc(N2CCOCC2)c2sc(CN3CCN(CC4CC4)CC3)cc2n1 (10 µM)	0
COc1c(O)cc2oc(-c3ccc(O)cc3)cc(=O)c2c1O [Hispidulin] (10 µM)	0
Cc1cc(CSc2ccccc2C(=O)NCCNc2ccc(C(F)(F)F)cc2[N+](=O)[O-])on1 (10 µM)	0

Target: ZAP70 (UniProt P43403)
Assay: as above
Conditions: K562; 2-18 h

Compound	number of time points
Cc1cc(C(=O)NC(C)(C)C)cc(C#Cc2ccc3c4c(oc3c2)C(C)(C)c2cc(NS(C)(=O)=O)ccc2C4=O)n1 (10 µM)	0
COCCOc1ccc2c(c1)ncn2-c1ccc2cccc(N3CCC(N)CC3)c2n1 (10 µM)	0
COc1ccc2c(Oc3ccc4c(C(=O)Nc5ccccc5N)cccc4c3)ccnc2c1 [Chiauranib] (10 µM)	0
COc1cc2c(cc1OC)/C(=C/c1ccc(O)cc1)C(=O)N2 (10 µM)	0
COc1cc2ncnc(Nc3ccc(O)c(Br)c3)c2cc1OC (10 µM)	0
O=C(O)[C@H]1O[C@@H](Oc2cc3oc(-c4ccc(O)cc4)cc(=O)c3c(O)c2O)[C@H](O)[C@@H](O)[C@@H]1O [Scutellarin] (10 µM)	0
NCCOc1ccc(Cl)cc1C(=O)Nc1ccc([N+](=O)[O-])cc1Cl [HJC0152 hydrochloride] (2 µM)	0
CC(Sc1nc2c(cnn2-c2cccc(Cl)c2)c(=O)[nH]1)C(N)=O (stereo not drawn) (10 µM)	0
N#C/C(=C\c1ccc(O)c(O)c1)C(=O)O [Tyrphostin AG30] (10 µM)	0
COc1cc(N2CCOCC2)ccc1Nc1ncc(F)c(Nc2ccccc2NS(C)(=O)=O)n1 (10 µM)	0
CCC(=O)Nc1cccc(Oc2nc(Nc3ccc(N4CCN(C)CC4)cc3OC)ncc2Cl)c1 (10 µM)	0
O=C1OC(/C=C/c2ccccc2)=NC/1=C\c1cccnc1 (10 µM)	0
Cc1cccc(-c2[nH]ncc2-c2ccnc3ccccc23)n1 (10 µM)	0
C=CC(=O)Nc1cc(Nc2nccc(-c3cn(C)c4ccccc34)n2)c(OC)cc1OCCN(C)C [Rezivertinib] (2.5 µM)	0
Nc1nc(N)c2nc(-c3cccc(O)c3)c(-c3cccc(O)c3)nc2n1 (10 µM)	0
CCN1CCN(Cc2cnc(Nc3cc(-c4cc(F)c5nc(C)n(C(C)C)c5c4)c(F)cn3)nc2)CC1 (10 µM)	0
Nc1[nH]nc2nc(-c3ccc(NS(=O)(=O)c4cc(Cl)ccc4Cl)cc3)cnc12 (10 µM)	0
C=CC(=O)Nc1cccc(Oc2nc(Nc3ccc(N4CCN(C)CC4)c(F)c3)nc3[nH]ccc23)c1 [Avitinib (maleate)] (2.5 µM)	0
Nc1nc(NCCNc2ncc(-n3ccnc3)c(-c3ccc(Cl)cc3Cl)n2)ccc1[N+](=O)[O-] (2.5 µM)	0

Compound	number of time points
O=C1Nc2ccc(I)cc2/C1=C/c1cc(Br)c(O)c(Br)c1 (10 µM)	0
C=C1C(=O)[C@@]23[C@H](O)C[C@@H]4C(C)(C)C(=O)CC[C@@]4(C)[C@@H]2CC[C@@H]1[C@H]3O [Glaucocalyxin A] (2.5 µM)	0
C=C1CCC[C@]2(C)C=C3OC(=O)C(C)=C3C[C@@H]12 [Atractylenolide I] (10 µM)	0
Cc1nn(C)cc1-c1nc2c(N3CCN(Cc4ccc(Cl)cc4)CC3)c(Cl)cnc2[nH]1 (10 µM)	0
Brc1ccc(CSc2nc3ccccc3o2)cc1 [BMP signaling agonist sb4] (10 µM)	0
CN1CCN(c2cc(-c3ccncc3)c(-c3ccc4ccccc4c3)nn2)CC1 (10 µM)	0
COc1cc(-c2cc(OP(=O)(O)O)cc(-c3cc(OC)c(OC)c(OC)c3)c2)cc(OC)c1OC [Stafia-1] (10 µM)	0
CC(C)(C)Cc1[nH]nc2c1[C@@](C)(c1ccccc1)C1=C(CC(C)(C)CC1=O)N2 (10 µM)	0
Cc1c(C(=O)Nc2ccc(Oc3ccnc4[nH]cc(-c5ccccc5)c34)c(F)c2)c(=O)n(-c2ccc(F)cc2)n1C (10 µM)	0
N#Cc1ccc(-c2cnc3[nH]cc(NC(=O)c4cccnc4)c3c2)cc1 (10 µM)	0
Cc1ccc(C(=O)NC2CC2)cc1-n1ncc(C(=O)c2cccc(C#N)c2)c1N [Acumapimod] (10 µM)	0
COc1cc(N2CCC(N3CCN(C)CC3)CC2)ccc1Nc1ncc(Cl)c(-c2c[nH]c3ccccc23)n1 (2.5 µM)	0
Cc1cc(Nc2cc(N3CCN(C)CC3)nc(Nc3ccc([N+](=O)[O-])cc3)n2)n[nH]1 (2.5 µM)	0
C=CC(=O)N1CCC[C@@H](n2nc(-c3ccc(Oc4ccccc4)cc3)c3c(N)n[nH]c(=O)c32)C1 [BTK inhibitor 17] (10 µM)	0
O=Nc1c(-c2c(O)[nH]c3cc(Br)ccc23)[nH]c2ccccc12 [GSK 3 Inhibitor IX] (2.5 µM)	0
C#Cc1cccc(Nc2ncnc3cc(OC)c(NC(=O)N4C[C@H]5CCN(C)[C@H]5C4)cc23)c1 [Theliatinib] (10 µM)	0
Fc1ccc2[nH]ccc2c1-c1nc(N2CCOCC2)c2sc(CN3CCN(CC4CC4)CC3)cc2n1 (10 µM)	0
COc1c(O)cc2oc(-c3ccc(O)cc3)cc(=O)c2c1O [Hispidulin] (10 µM)	0
Cc1cc(CSc2ccccc2C(=O)NCCNc2ccc(C(F)(F)F)cc2[N+](=O)[O-])on1 (10 µM)	0
